The other results are listed elsewhere or left out.
How the values were obtained:
Assay in all cases: log2 fold change, soluble protein after heating vs DMSO (PISA); higher = thermal stabilisation; K562 cells, 10 uM, 30 min; active = over 0.2 and 3.5 SD of the protein, either way, in both replicates (recomputed)
saracatinib = compound: CN1CCN(CCOc2cc(OC3CCOCC3)c3c(Nc4c(Cl)ccc5c4OCO5)ncnc3c2)CC1 [saracatinib]
In short: (§1)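 K562 cells at 2×10^6 cells/mL were exposed to 10 μM compound for 30 min, then aliquots were heated for 3 min across 48°C-58°C, pooled, and extracted in PBS containing 0.5% NP-40 at 4°C. The supernatant after 21,000xg for 90 min was taken as soluble protein and measured by TMTpro 16plex LC-MS/MS with channel sums equalised. Thermal stability is reported relative to control samples, with values from duplicates. Fold changes are given on a log2 scale.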

Sequences of proteins named here, by UniProt entry; tags and fusion partners are left off. A change or cut given only in a name is not applied to a line headed by its entry.
UniProt O94901, whole entry, looked up: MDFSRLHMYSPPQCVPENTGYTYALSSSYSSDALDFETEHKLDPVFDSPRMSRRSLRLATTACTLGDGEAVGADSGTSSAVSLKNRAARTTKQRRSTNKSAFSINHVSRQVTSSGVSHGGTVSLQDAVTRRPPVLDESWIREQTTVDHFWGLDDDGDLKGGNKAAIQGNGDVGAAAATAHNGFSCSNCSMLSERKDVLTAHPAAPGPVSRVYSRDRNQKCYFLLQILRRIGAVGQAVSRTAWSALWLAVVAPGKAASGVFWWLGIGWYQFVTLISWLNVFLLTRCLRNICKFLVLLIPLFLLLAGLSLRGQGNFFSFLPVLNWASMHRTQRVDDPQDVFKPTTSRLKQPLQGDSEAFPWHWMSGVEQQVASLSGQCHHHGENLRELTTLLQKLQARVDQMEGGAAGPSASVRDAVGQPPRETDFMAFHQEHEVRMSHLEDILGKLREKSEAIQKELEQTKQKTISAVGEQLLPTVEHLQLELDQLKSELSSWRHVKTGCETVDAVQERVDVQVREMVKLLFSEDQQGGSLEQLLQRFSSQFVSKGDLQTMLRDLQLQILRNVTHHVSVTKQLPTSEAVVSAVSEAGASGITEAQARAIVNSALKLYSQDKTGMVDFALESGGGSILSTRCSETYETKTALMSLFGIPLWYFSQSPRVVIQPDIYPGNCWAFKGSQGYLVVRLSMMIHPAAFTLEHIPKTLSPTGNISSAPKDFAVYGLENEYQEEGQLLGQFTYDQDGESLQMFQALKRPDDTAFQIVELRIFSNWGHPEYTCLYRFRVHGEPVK
UniProt Q9Y6J9: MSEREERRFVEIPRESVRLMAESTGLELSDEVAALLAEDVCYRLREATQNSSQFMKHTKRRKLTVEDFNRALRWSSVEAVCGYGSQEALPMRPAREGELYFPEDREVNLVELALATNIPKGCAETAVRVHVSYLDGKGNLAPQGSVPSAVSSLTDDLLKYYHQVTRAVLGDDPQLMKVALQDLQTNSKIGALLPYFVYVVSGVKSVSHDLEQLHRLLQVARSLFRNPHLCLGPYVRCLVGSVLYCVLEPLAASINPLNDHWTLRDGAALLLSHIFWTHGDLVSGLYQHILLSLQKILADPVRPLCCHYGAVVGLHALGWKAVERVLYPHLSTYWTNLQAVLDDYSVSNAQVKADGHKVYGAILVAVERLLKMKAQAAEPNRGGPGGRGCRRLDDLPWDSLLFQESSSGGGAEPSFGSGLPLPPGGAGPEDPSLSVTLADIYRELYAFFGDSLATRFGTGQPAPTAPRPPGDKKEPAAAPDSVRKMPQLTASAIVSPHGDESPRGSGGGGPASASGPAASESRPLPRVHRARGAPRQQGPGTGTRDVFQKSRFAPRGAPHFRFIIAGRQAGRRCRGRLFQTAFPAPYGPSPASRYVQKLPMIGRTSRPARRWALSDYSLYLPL
UniProt Q16594, whole entry, looked up: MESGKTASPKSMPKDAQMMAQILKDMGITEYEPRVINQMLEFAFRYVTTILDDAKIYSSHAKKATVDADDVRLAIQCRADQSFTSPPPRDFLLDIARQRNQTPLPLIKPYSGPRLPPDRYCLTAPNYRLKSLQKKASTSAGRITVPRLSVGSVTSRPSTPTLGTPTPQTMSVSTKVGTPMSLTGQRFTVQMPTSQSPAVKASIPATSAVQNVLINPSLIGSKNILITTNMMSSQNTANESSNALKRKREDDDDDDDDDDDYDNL
UniProt Q9C0B7: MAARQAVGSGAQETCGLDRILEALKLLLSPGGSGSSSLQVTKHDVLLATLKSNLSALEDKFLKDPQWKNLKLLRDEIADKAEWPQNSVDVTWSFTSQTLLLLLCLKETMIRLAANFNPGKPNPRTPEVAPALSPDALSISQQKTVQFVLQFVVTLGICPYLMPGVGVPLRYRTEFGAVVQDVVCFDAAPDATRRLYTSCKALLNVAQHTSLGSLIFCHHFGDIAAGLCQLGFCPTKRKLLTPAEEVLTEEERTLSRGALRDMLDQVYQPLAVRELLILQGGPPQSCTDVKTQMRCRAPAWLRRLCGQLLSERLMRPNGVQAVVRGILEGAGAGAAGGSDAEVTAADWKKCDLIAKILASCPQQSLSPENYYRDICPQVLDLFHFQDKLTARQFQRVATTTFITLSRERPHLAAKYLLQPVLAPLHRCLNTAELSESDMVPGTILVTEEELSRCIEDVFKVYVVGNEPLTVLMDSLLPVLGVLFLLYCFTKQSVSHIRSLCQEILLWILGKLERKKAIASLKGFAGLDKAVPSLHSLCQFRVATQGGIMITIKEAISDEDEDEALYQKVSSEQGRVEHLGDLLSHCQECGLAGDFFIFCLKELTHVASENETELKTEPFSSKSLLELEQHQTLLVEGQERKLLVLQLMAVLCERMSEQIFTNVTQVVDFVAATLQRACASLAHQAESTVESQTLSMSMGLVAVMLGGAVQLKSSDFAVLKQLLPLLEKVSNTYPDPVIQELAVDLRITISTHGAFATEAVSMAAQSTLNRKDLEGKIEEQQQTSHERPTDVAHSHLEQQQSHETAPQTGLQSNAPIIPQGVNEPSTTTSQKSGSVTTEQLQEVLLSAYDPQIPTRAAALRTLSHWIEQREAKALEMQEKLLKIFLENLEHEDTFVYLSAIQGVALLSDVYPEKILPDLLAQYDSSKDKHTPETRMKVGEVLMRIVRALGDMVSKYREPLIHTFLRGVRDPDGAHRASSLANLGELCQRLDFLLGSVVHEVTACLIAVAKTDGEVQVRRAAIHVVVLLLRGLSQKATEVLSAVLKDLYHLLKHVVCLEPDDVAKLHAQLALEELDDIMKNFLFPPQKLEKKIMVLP
UniProt Q9Y2H1: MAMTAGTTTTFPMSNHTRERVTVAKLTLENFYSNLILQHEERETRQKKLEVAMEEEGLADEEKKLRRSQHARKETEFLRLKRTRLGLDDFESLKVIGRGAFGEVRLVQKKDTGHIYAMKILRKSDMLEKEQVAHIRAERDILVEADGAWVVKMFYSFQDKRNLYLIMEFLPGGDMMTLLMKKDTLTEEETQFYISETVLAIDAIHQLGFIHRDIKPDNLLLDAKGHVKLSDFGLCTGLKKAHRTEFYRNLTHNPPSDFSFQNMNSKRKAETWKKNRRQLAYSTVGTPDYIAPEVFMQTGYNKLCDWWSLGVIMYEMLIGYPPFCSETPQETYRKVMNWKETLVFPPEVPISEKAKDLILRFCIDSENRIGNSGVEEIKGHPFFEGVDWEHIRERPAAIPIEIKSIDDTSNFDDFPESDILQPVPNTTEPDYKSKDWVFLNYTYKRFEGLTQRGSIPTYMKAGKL
UniProt Q15526: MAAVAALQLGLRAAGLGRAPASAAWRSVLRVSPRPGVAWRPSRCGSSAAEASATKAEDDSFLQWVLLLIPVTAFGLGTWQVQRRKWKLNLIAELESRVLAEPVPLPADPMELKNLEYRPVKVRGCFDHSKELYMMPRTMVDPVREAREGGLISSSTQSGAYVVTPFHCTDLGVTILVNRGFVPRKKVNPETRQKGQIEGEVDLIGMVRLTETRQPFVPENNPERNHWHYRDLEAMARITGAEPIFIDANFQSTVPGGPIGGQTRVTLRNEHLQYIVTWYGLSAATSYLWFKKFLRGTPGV
UniProt Q92844: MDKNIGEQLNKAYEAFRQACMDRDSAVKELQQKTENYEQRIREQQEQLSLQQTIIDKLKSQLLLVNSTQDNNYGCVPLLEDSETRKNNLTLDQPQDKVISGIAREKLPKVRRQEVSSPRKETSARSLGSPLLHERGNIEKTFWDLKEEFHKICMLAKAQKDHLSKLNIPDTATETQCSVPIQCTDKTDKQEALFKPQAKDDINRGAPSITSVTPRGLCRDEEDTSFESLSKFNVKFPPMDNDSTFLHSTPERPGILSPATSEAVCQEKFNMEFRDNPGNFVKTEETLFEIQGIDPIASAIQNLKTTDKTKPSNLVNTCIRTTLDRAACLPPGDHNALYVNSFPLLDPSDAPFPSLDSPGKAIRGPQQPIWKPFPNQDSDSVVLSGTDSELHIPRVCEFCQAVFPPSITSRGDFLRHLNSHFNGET
UniProt Q4KMP7: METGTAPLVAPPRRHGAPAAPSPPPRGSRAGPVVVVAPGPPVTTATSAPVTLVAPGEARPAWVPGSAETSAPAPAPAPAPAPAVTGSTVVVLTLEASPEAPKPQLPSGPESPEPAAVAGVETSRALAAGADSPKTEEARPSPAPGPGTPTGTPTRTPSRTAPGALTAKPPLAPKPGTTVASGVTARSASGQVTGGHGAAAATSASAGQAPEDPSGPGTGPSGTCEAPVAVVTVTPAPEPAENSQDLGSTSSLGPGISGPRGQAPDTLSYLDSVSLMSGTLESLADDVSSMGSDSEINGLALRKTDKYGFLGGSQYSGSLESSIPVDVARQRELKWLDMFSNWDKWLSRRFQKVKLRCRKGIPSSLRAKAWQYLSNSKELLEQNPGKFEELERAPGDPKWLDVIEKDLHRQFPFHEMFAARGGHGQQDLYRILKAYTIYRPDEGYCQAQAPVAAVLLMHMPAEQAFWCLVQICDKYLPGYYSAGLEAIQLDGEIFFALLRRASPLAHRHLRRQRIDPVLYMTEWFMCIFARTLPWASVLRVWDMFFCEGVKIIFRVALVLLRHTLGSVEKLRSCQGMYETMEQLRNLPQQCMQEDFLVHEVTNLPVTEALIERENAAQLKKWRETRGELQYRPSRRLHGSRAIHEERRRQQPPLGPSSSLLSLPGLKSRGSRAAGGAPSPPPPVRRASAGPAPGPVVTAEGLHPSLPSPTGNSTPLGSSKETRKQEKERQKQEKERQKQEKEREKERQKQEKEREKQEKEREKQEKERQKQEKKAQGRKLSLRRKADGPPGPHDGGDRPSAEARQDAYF
UniProt Q8NBK3: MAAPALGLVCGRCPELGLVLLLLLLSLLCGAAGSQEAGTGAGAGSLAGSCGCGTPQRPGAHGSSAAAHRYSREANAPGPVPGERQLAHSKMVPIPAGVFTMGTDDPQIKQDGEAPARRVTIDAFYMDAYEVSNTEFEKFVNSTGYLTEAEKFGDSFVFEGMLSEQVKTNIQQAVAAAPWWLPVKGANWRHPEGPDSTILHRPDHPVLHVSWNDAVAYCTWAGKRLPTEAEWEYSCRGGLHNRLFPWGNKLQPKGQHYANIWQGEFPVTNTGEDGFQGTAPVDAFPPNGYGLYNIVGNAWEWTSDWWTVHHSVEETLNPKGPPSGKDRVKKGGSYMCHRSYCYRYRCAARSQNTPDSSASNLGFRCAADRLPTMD
UniProt P56962: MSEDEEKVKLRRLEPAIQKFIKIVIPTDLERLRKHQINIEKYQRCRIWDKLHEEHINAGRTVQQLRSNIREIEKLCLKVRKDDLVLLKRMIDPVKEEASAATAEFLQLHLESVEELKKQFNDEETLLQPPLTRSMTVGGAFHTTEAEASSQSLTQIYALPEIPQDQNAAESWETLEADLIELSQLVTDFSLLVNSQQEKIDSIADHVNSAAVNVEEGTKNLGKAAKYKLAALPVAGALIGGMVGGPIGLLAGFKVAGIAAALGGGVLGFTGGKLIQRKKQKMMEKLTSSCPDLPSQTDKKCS
UniProt O15400: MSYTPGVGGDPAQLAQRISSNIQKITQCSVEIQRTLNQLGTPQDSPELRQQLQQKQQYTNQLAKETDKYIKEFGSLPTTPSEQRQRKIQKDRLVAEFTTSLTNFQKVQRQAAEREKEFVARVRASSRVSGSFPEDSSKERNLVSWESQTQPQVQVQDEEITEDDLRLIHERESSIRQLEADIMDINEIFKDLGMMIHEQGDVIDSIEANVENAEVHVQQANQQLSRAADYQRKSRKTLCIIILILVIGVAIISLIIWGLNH
UniProt Q8N2H4: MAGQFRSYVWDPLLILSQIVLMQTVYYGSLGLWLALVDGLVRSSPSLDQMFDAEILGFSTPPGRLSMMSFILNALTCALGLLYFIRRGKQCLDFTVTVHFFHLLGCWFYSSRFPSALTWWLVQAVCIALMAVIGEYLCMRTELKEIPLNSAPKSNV
UniProt Q9UMX1: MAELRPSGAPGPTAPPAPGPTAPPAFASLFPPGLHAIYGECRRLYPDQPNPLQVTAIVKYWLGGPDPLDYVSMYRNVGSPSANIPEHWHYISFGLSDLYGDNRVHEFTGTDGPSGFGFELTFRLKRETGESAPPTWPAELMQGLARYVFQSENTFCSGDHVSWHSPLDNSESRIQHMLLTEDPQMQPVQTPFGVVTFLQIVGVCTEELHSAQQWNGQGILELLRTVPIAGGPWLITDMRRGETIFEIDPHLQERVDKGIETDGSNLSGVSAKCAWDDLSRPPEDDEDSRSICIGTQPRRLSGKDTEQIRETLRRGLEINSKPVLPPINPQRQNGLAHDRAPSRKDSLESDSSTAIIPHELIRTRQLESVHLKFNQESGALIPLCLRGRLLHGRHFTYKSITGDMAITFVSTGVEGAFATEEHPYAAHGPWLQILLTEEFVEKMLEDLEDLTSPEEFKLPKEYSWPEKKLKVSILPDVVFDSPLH

sotrastaurin = compound: CN1CCN(c2nc(C3=C(c4c[nH]c5ccccc45)C(=O)NC3=O)c3ccccc3n2)CC1 [sotrastaurin]
In short: as §1

Tubastatin A = compound: CN1CCc2c(c3ccccc3n2Cc2ccc(C(=O)NO)cc2)C1 [Tubastatin A]
In short: as §1

[1] = compound: CNC(=O)C1=CC=CC=C1NC2=NC(=NC=C2Cl)NC3=C(C=C(C=C3)N4CCOCC4)OC
In short: as §1

defactinib = compound: CNC(=O)c1ccc(Nc2ncc(C(F)(F)F)c(NCc3nccnc3N(C)S(C)(=O)=O)n2)cc1 [defactinib]
In short: as §1

rucaparib = compound: CNCc1ccc(-c2[nH]c3cc(F)cc4c3c2CCNC4=O)cc1 [rucaparib]
In short: as §1

[2] = compound: CNc1nc(-c2ccc3c(N)n[nH]c3c2)cc(N2C[C@@H](C(=O)NC3CCCCC3)CC[C@H]2C)n1
In short: as §1

encorafenib = compound: COC(=O)N[C@@H](C)CNc1nccc(-c2cn(C(C)C)nc2-c2cc(Cl)cc(NS(C)(=O)=O)c2F)n1 [encorafenib]
In short: as §1

[3] = compound: COC(=O)[C@H](CCSC)NC(=O)C1=C(C=C(C=C1)NC[C@H](CS)N)C2=CC=CC=C2
In short: as §1

alvocidib = compound: CN1CC[C@H](c2c(O)cc(O)c3c(=O)cc(-c4ccccc4Cl)oc23)[C@H](O)C1 [alvocidib]
In short: as §1

Measured: log2 fold change

SUN1 isoform 9 (UniProt O94901)
inactive: saracatinib -0.023 | sotrastaurin -0.178 | Tubastatin A -0.048 | [1] -0.108 | defactinib 0.049 | rucaparib 0.083 | [2] -0.038 | encorafenib -0.018 | [3] -0.029

TAF6L (UniProt Q9Y6J9)
inactive: saracatinib 0.148 | sotrastaurin -0.2 | Tubastatin A -0.012 | [1] -0.044 | [2] 0.035

TAF9 (UniProt Q16594)
inactive: saracatinib 0.076 | sotrastaurin 0.021 | Tubastatin A -0.023 | [1] -0.1 | defactinib 0.016 | rucaparib -0.019 | [2] -0.065 | encorafenib -0.048 | [3] 0.103

STOM (UniProt P27105)
inactive: saracatinib -0.015 | sotrastaurin 0.039 | Tubastatin A 0.016 | [1] -0.019 | defactinib 0.068 | rucaparib 0.006 | [2] -0.03 | encorafenib 0.016 | [3] 0.002

TARS2 (UniProt Q9BW92)
active: Tubastatin A -0.357
inactive: saracatinib -0.004 | sotrastaurin -0.049 | [1] 0.03 | defactinib -0.033 | rucaparib 0.009 | [2] -0.098 | encorafenib 0.015 | [3] 0.039

TANGO6 (UniProt Q9C0B7)
inactive: saracatinib -0.09 | sotrastaurin -0.135 | Tubastatin A 0.116 | [1] -0.077 | rucaparib 0.586 | [2] 0.037 | encorafenib 0.001

SULT1A1 (UniProt P50225)
inactive: saracatinib 0.052 | sotrastaurin -0.03 | Tubastatin A -0.004 | [1] 0.105 | defactinib -0.214 | rucaparib -0.048 | [2] 0.05 | encorafenib 0.084 | [3] -0.125

TACC2 (UniProt O95359)
inactive: saracatinib -0.003 | sotrastaurin 0.115 | Tubastatin A -0.041 | [1] 0.075 | defactinib -0.091 | rucaparib -0.045 | [2] -0.105 | encorafenib -0.013 | [3] 0.039

SYNE1 (UniProt Q8NF91)
inactive: saracatinib -0.054 | sotrastaurin -0.086 | Tubastatin A 0.193 | [1] -0.14 | defactinib -0.092 | rucaparib -0.039 | [2] 0.045 | encorafenib -0.101 | [3] 0.076

TAMM41 isoform 3 (UniProt Q96BW9)
inactive: saracatinib -0.009 | sotrastaurin -0.003 | Tubastatin A -0.043 | [1] -0.037 | defactinib 0.015 | rucaparib 0.036 | [2] -0.006 | encorafenib 0.01 | [3] -0.007

STK38L (UniProt Q9Y2H1)
inactive: saracatinib 0.103 | sotrastaurin 0.035 | Tubastatin A -0.067 | [1] 0.002 | defactinib -0.048 | rucaparib -0.052 | [2] 0.024 | encorafenib 0.004 | [3] -0.073

SURF1 (UniProt Q15526)
inactive: saracatinib 0.034 | sotrastaurin -0.084 | Tubastatin A -0.03 | [1] 0.026 | defactinib -0.012 | rucaparib -0.083 | [2] -0.092 | encorafenib 0.017 | [3] -0.105

TANK (UniProt Q92844)
inactive: saracatinib 0.118 | sotrastaurin 0.033 | Tubastatin A 0.03 | [1] 0.236 | defactinib 0.045 | rucaparib -0.016 | [2] 0.052 | encorafenib 0.064 | [3] -0.03

SUCLG1 (UniProt P53597)
inactive: saracatinib 0.042 | sotrastaurin 0.019 | Tubastatin A -0.005 | [1] 0.015 | defactinib -0.057 | rucaparib 0.016 | [2] -0.006 | encorafenib -0.001 | [3] 0.016

TATDN2 (UniProt Q93075)
inactive: saracatinib -0.017 | sotrastaurin 0.111 | Tubastatin A -0.094 | [1] -0.002 | defactinib 0 | rucaparib -0.175 | [2] 0 | encorafenib 0.099 | [3] -0.031

STK4 (UniProt Q13043)
inactive: saracatinib 0.006 | sotrastaurin 0.029 | Tubastatin A 0.039 | [1] 0.01 | defactinib -0.002 | rucaparib -0.008 | [2] 0.012 | encorafenib 0.077 | [3] -0.003

TBC1D10B (UniProt Q4KMP7)
inactive: saracatinib -0.025 | sotrastaurin -0.036 | Tubastatin A 0.001 | [1] -0.015 | defactinib -0.008 | rucaparib 0.094 | [2] 0.009 | encorafenib 0.048 | [3] -0.023

TAX1BP1 (UniProt Q86VP1)
inactive: saracatinib 0.016 | sotrastaurin -0.057 | Tubastatin A -0.01 | [1] -0.016 | defactinib -0.038 | rucaparib -0.003 | [2] -0.06 | encorafenib 0.025 | [3] 0.054

STK39 (UniProt Q9UEW8)
inactive: saracatinib -0.014 | sotrastaurin -0.017 | Tubastatin A 0.009 | [1] -0.045 | defactinib -0.015 | rucaparib 0.014 | [2] -0.008 | encorafenib 0.039 | [3] 0.056

SUCLA2 (UniProt Q9P2R7)
inactive: saracatinib -0.013 | sotrastaurin 0.03 | Tubastatin A 0.024 | [1] 0.011 | defactinib -0.037 | rucaparib -0.029 | [2] -0.048 | encorafenib 0.021 | [3] -0.008

STXBP2 isoform 3 (UniProt Q15833)
inactive: saracatinib -0.138 | sotrastaurin -0.242 | Tubastatin A 0.085 | [1] -0.091 | defactinib -0.133 | rucaparib 0.157 | [2] 0.142 | encorafenib 0.176 | [3] -0.203

SUMF1 isoform 3 (UniProt Q8NBK3)
inactive: saracatinib -0.066 | sotrastaurin 0.033 | Tubastatin A 0.058 | [1] -0.013 | defactinib 0.209 | [2] -0.116 | [3] 0.003

STX17 (UniProt P56962)
inactive: saracatinib -0.038 | sotrastaurin 0 | Tubastatin A 0.044 | [1] 0.021 | defactinib -0.266 | rucaparib 0.152 | [2] 0.127 | encorafenib 0.091 | [3] -0.001

STXBP5 (UniProt Q5T5C0)
inactive: saracatinib -0.014 | sotrastaurin 0.019 | Tubastatin A 0.01 | [1] -0.023 | defactinib -0.011 | rucaparib -0.002 | [2] -0.032 | encorafenib 0.028 | [3] -0.003

SYMPK (UniProt Q92797)
inactive: saracatinib -0.058 | sotrastaurin -0.205 | Tubastatin A 0.258 | [1] 0.008 | defactinib -0.245 | rucaparib 0.09 | [2] 0.007 | encorafenib 0.079 | [3] -0.022

SUOX (UniProt P51687)
inactive: saracatinib 0.02 | sotrastaurin 0.013 | Tubastatin A -0.031 | [1] -0.01 | defactinib 0.031 | rucaparib -0.037 | [2] -0.022 | encorafenib 0.001 | [3] 0.042

STX7 (UniProt O15400)
inactive: saracatinib 0.063 | sotrastaurin 0.026 | Tubastatin A -0.036 | [1] 0.013 | defactinib -0.033 | rucaparib 0.028 | [2] -0.014 | encorafenib -0.039 | [3] -0.02

STK38 (UniProt Q15208)
inactive: saracatinib -0.02 | sotrastaurin -0.055 | Tubastatin A -0.016 | [1] -0.073 | defactinib -0.127 | rucaparib 0.058 | [2] 0.005 | encorafenib 0.104 | [3] -0.064

SYS1 (UniProt Q8N2H4)
inactive: saracatinib 0.233 | [1] 0.071 | rucaparib -0.095 | [2] -0.261 | encorafenib 0.019

SUFU (UniProt Q9UMX1)
inactive: [1] 0.061

SUSD1 isoform 2 (UniProt Q6UWL2)
inactive: saracatinib -0.085 | alvocidib -0.044 | [1] -0.124 | defactinib -0.081 | rucaparib -0.187 | [2] 0.028 | encorafenib 0.045 | [3] 0.043

Looked up one by one from the entries so far (2):
TAX1BP1 (UniProt Q86VP1)
inactive: saracatinib 0.016 | sotrastaurin -0.057 | Tubastatin A -0.01 | [1] -0.016 | defactinib -0.038 | rucaparib -0.003 | [2] -0.06 | encorafenib 0.025 | [3] 0.054

STK39 (UniProt Q9UEW8)
inactive: saracatinib -0.014 | sotrastaurin -0.017 | Tubastatin A 0.009 | [1] -0.045 | defactinib -0.015 | rucaparib 0.014 | [2] -0.008 | encorafenib 0.039 | [3] 0.056
